Source: patent publication US20230074145A1
These are yes or no findings as the source states them, for the method shown. Some results given as binding are weak or reduced against the parent protein; the word gives no strength.

By UniProt entry, the sequences of proteins in these tests, tags left out. Residues count along the entry.
UniProt P25092, residues 24-1073: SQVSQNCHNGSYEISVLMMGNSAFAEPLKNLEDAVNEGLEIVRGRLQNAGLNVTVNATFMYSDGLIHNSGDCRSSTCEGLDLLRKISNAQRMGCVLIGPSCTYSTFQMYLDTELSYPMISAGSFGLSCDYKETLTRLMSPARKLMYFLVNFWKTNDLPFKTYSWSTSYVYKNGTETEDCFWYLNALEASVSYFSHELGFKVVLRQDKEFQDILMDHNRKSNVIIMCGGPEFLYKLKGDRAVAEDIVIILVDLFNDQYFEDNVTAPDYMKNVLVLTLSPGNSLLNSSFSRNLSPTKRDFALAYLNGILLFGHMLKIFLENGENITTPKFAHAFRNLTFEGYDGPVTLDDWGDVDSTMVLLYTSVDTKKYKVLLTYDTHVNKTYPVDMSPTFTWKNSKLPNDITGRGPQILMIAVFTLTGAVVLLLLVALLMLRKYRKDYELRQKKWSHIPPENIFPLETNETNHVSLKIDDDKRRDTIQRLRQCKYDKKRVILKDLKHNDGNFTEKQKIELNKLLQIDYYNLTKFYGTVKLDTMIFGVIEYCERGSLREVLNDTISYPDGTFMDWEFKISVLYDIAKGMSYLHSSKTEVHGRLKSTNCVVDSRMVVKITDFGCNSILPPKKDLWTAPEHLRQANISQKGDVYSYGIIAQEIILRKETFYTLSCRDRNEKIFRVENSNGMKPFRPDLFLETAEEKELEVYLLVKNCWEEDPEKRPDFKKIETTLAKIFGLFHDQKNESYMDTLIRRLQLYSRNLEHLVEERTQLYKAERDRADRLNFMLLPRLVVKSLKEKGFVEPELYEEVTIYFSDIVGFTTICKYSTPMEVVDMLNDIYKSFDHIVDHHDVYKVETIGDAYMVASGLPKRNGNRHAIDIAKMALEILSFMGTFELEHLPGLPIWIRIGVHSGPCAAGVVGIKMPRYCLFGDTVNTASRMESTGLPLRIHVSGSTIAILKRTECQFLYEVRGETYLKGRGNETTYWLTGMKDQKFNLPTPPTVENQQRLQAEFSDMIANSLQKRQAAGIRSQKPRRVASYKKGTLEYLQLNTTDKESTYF

B1: VHH antibody #32 (VHH)
VHH: DVQLQESGGGLVQAGGSLRLTCTTTFSSYAMGWFRQAPGKEREFVATISGGGVYTYYADSVKGRFTISRDNSKNTMYLQMNSLKFEDTAVYYCAQRNIPRYGLESRNYDYWGQGTQVTVSS
B2: VHH antibody #62 (VHH)
VHH: DVQLQESGGGLVQAGGSLRLACAASGRTASSNAMGWFRQAPGKEREFVAAISGGGIYTDYADSVKGRFTISRDNSKNTMYLQMNSLKPEDTAVYYCAQRNIPRIGLGSGNYDYWGQGTQVTVSS
B3: Bivalent antibody of VHH antibody #32 (protein, not shown: a dimerising Fc or GST)
chain: B1 VHH
B4: Bivalent antibody of VHH antibody #62 (protein, not shown: a dimerising Fc or GST)
chain: B2 VHH

biological target: GCC (GUCY2C, Guanylate Cyclase 2C) on GCC positive cells (UniProt P25092); assay: flow cytometry on GCC positive and GCC negative cells

Binder	binding
B1	binds
B2	binds
B3	binds
B4	binds
